The match of structure and compound is tentative.
molecular target: mouse TRPM3α2 (mTRPM3) ion channel (Mus musculus, UniProt J9SQF3); assay: TRPM3 ion channel driven Ca2+ uptake, Fluo-4 AM assay, mTRPM3alpha2 overexpressing flip-in HEK293 cells stimulated with pregnenolone sulfate (50 μM); conditions: mTRPM3 overexpressing HEK293 cells stimulated with pregnenolone sulfate (50 μM), activity ranges A, B, C
Procedure: Monitoring the TRPM3 Ion Channel Driven Ca2+ Uptake.
In order to monitor the inhibition of the mouse TRPM3α2 (mTRPM3) ion channel by the compounds of the invention, a cellular system making use of an mTRPM3alpha2 or hTRPM3 overexpressing cell line (flip-in HEK293) was used. The TRPM3 channel was stimulated/opened with Pregnenolone sulfate (PS) (50 μM) which results in Ca^2+ influx.
For mTRPM3, the intracellular Ca^2+ was measured with a Calcium responsive dye, Fluor-4 AM ester (Invitrogen). Cells were cultured until a confluence of 80-90%, washed with Versene (Invitrogen) and detached from the surface by a short incubation with 0.05% Trypsin (Invitrogen). The trypsination process was stopped by the addition of complete cell culture medium (DMEM, glutamax, 10% FCS, NEAA, Pen-Strep). Cells were collected and resuspended in Krebs buffer without Calcium at RT.
Prior the cell seeding (±2000 cells/well into a black, 384 well plate (Greiner)) the diluted compound was added in the assay plate, together with the PS dissolved in Krebs buffer containing Calcium. […] Directly after cell addition the plates were read on an Envision fluorescence reader (Perkin Elmer) by an Excitation of 485 nm and emission at 535 nm.
Channel inhibition was calculated compared to a non-PS stimulated control versus a condition stimulated with PS (50 μM) with vehicle. The ability of the compounds of the invention to inhibit this activity was determined as: Percentage inhibition=[1−((RFU determined for sample with test compound present−RFU determined for sample with positive control inhibitor) divided by (RFU determined in the presence of vehicle−RFU determined for sample with positive control inhibitor))]*100.
The activities of the Example compounds cpd 001-262 tested are depicted in the table below. All tested compounds show an activity in the Fluo-4 AM assay. The activity ranges A, B and C refer to IC50 values in the Fluo-4 AM assay as follows: “A”: IC50<1 μM; “B”: 1 μM≤IC50≤20 μM and “C”: IC50>20 μM.

By UniProt entry, the sequences of proteins in these tests, tags left out. Residues count along the entry.
UniProt J9SQF3, 1-1709 isoform 12: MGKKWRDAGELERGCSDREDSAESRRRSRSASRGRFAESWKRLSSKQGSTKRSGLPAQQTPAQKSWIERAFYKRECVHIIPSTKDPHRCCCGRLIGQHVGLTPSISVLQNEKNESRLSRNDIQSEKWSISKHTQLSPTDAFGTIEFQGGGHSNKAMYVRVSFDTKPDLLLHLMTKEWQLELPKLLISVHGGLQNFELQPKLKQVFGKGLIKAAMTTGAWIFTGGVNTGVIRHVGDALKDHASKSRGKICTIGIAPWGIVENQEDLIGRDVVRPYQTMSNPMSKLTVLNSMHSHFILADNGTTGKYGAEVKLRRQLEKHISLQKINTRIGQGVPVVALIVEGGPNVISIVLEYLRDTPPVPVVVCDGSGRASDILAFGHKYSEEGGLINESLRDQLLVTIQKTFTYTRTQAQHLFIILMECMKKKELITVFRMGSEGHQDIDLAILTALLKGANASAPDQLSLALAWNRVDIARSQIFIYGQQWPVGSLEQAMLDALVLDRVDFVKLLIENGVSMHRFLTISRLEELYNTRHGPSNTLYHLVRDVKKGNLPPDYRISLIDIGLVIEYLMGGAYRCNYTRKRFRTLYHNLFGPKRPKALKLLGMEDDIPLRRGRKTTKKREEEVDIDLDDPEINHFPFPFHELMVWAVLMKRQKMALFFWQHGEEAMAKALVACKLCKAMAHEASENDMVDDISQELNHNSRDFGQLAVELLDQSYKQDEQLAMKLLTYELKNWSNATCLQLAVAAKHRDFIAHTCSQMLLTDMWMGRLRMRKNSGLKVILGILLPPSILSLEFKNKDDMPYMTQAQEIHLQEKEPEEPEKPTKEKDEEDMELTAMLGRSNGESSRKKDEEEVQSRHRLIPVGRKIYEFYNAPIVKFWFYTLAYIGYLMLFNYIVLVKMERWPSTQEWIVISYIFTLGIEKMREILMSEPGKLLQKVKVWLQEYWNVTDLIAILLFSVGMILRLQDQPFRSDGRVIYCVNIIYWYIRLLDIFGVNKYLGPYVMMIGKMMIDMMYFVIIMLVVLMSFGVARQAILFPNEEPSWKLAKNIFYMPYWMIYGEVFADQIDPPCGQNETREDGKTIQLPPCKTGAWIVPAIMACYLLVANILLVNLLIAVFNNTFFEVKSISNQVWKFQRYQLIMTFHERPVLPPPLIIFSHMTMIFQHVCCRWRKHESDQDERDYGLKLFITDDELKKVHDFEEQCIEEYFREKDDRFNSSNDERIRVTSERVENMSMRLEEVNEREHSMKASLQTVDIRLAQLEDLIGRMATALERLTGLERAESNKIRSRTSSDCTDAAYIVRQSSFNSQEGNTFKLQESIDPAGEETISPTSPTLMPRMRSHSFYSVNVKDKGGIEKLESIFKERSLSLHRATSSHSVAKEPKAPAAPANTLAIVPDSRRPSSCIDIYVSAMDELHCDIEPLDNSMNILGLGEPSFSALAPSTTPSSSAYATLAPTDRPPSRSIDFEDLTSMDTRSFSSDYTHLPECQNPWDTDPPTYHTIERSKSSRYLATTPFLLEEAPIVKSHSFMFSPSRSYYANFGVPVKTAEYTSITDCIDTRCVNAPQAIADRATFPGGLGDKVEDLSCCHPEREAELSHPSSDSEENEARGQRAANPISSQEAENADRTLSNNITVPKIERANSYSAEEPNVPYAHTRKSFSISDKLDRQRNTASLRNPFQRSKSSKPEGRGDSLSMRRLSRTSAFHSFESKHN

First: Cn1nc2ccc(OCc3cccnc3C(F)(F)F)cc2c1C(=O)NC(C)(CO)C(N)=O (single isomer, unassigned)
Second: Cn1nc2ccc(OCc3ccccn3)cc2c1C(=O)N[C@H](CO)C(N)=O
The IC50 of the first is lower: less than 1 µM for the first, 1 to 20 µM for the second.

First: Cc1ncsc1COc1ccc2nn(C)c(C(=O)NCC(C)(C)N3CCOCC3)c2c1
Second: Cn1nc2ccc(OCc3ccccc3)cc2c1C(=O)NCC(C)(C)N1CCOCC1
The IC50 of the first is lower: 1 to 20 µM for the first, greater than 20 µM for the second. The first is the more potent here.

C[C@H](NC(=O)c1c2cc(OCC3CC3)ccc2nn1C)C(N)=O showed an IC50 of 1 to 20 µM.
